Measurements reported in article doi:10.1101/2020.04.17.046342.
No constants are given. Whether binding was seen depends on the method and setting. In cells and extracts the contact can be indirect. Some results given as binding are weak or reduced against the parent protein; the word gives no strength. For some of these results: Tags and fused reporters may be left off the sequences shown.

Amino acid sequences for entries named in this document (tags omitted).
UniProt P47239: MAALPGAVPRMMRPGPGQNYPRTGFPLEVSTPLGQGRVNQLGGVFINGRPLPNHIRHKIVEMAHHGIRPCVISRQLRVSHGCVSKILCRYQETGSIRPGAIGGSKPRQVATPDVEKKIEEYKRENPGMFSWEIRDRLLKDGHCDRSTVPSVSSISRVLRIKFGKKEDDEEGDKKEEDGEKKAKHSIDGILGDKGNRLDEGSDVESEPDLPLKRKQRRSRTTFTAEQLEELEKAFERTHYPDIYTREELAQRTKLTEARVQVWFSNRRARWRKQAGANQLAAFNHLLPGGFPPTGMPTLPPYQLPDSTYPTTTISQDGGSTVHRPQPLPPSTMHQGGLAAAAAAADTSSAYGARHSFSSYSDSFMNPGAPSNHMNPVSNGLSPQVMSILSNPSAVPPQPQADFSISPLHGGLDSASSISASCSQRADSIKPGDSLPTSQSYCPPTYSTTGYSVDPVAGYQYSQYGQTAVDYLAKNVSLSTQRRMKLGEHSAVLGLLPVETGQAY
UniProt P10085: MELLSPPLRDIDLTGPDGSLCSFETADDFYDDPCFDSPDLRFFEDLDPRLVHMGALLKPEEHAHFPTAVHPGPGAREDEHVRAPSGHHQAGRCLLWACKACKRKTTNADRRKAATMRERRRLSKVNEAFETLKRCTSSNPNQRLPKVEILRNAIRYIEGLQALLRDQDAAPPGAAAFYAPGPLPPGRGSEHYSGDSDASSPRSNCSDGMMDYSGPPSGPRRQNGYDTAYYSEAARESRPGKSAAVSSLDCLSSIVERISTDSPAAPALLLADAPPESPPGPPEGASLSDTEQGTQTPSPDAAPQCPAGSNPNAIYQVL

T1: Flag-tagged KDM2B (pCMV-3xFlag-KDM2B) (UniProt Q8NHM5)
T1 sequence: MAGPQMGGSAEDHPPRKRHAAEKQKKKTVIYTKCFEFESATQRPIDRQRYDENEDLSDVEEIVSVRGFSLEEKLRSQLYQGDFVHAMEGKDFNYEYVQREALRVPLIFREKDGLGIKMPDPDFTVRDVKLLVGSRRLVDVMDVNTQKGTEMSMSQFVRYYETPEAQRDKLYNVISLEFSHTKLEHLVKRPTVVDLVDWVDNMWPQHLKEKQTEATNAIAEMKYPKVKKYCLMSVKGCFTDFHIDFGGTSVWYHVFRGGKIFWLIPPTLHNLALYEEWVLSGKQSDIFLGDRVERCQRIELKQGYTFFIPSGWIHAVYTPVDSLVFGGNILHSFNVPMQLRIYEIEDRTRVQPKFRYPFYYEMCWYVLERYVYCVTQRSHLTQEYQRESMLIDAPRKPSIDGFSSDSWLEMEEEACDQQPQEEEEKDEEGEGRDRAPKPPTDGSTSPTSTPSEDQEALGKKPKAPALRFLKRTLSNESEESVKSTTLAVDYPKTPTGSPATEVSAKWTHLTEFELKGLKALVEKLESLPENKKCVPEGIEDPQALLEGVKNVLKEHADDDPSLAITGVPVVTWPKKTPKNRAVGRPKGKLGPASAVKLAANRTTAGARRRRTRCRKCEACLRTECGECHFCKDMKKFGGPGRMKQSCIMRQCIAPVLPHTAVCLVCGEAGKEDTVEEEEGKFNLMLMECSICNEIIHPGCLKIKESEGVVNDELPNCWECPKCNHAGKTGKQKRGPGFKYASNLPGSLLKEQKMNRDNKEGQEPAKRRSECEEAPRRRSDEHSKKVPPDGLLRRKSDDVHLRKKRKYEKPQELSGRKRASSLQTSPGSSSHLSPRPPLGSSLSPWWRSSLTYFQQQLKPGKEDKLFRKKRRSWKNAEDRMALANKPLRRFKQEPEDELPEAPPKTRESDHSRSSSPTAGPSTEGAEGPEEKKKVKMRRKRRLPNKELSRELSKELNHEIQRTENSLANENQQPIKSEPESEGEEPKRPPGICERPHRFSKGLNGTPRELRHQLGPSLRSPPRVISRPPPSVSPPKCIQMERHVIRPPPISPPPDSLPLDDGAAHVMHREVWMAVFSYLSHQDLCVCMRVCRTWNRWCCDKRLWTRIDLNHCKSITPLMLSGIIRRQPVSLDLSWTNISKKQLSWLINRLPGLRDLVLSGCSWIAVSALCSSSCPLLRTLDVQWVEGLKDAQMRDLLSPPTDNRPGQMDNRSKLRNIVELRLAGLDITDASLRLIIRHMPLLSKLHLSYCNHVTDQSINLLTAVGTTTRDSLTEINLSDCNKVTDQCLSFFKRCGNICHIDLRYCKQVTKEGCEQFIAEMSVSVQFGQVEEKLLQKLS

T2: endogenous serum response factor (C2C12 cells) (mouse (endogenous in C2C12)) (UniProt Q9JM73)
T2 sequence: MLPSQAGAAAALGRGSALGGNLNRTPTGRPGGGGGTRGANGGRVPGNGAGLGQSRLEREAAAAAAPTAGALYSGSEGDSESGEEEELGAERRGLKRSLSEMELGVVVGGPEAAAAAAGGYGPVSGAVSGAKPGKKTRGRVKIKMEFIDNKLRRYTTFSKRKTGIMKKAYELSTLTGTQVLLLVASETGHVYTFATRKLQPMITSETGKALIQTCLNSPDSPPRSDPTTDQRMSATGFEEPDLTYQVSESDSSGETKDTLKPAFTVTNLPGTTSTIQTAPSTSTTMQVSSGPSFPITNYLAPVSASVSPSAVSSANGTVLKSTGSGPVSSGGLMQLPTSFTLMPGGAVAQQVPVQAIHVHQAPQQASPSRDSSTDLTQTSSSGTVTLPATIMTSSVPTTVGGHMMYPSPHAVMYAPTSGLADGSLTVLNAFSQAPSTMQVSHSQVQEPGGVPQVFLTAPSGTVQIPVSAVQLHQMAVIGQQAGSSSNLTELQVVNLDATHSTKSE

T3: HA-tagged SRF, full length (pCGN-SRF-HA) (UniProt P11831)
T3 sequence: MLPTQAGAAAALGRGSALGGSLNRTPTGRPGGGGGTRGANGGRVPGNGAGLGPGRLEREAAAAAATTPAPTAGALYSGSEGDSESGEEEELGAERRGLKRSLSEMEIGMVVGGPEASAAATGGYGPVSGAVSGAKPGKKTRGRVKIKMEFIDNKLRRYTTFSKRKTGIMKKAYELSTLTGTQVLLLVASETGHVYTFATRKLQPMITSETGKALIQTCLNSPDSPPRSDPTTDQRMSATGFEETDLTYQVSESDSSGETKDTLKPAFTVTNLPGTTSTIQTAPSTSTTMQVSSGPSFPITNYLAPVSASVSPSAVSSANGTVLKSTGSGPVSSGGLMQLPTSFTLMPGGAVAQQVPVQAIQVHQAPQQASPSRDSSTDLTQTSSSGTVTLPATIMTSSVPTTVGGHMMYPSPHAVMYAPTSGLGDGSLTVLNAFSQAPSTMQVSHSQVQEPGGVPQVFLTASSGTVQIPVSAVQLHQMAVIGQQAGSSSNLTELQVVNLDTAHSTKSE

B1: endogenous KDM2B (C2C12 cells) (protein, UniProt Q6P1G2 1-1309)
chain: MEAEKDSGRRLRAIDRQRYDENEDLSDVEEIVSVRGFSLEEKLRSQLYQGDFVHAMEGKDFNYEYVQREALRVPLVFRDKDGLGIKMPDPDFTVRDVKLLVGSRRLVDVMDVNTQKGTEMSMSQFVRYYETPEAQRDKLYNVISLEFSHTKLEHLVKRPTVVDLVDWVDNMWPQHLKEKQTEATNALAEMKYPKVKKYCLMSVKGCFTDFHIDFGGTSVWYHVFRGGKIFWLIPPTLHNLALYEEWVLSGKQSDIFLGDRVERCQRIELKQGYTFFIPSGWIHAVYTPVDSLVFGGNILHSFNVPMQLRIYEIEDRTRVQPKFRYPFYYEMCWYVLERYVYCVTQRSYLTQEYQRELMLIDAPRKTSVDGFSSDSWLDMEEESCEQQPQEEEEEEEDKEEEGDGADKTPKPPTDDPTSPTSTPPEDQDSTGKKPKAPAIRFLKRTLSNESEESVKSTSMPTDDPKTPTGSPATEVSTKWTHLTEFELKGLKALVEKLESLPENKKCVPEGIEDPQALLEGVKNVLKEHVDDDPTLAITGVPVVSWPKKTAKNRVVGRPKGKLGPASAVKLAANRTTAGARRRRTRCRKCEACLRTECGECHFCKDMKKFGGPGRMKQSCIMRQCIAPVLPHTAVCLVCGEAGKEDTVEEEEGKFNLMLMECSICNEIIHPGCLKIKESEGVVNDELPNCWECPKCNHAGKTGKQKRGPGFKYASNLPGSLLKEQKMNRDNKEGQEPAKRRSECEEAPRRRSDEHPKKVPADGILRRKSDDVHLRRKRKYEKPQELSGRKRASSLQTSPGSSSHLSPRPPLGSSLSPWWRSSLTYFQQQLKPGKEDKLFRKKRRSWKNAEDRLSLANKPLRRFKQEPEDDLPEAPPKTRESDQSRSSSPTAGPSTEGAEGPEEKKKVKMRRKRRLVNKELSKELSKELNHEIQKTESTLAHESQQPIKSEPESENDEPKRPLSHCERPHRFSKGLNGTPRELRHSLGPGLRSPPRVMSRPPPSASPPKCIQMERHVIRPPPISPPPDSLPLDDGAAHVMHREVWMAVFSYLSHRDLCVCMRVCRTWNRWCCDKRLWTRIDLNRCKSITPLMLSGIIRRQPVSLDLSWTNISKKQLSWLINRLPGLRDLVLSGCSWIAVSALCSSSCPLLRTLDVQWVEGLKDAQMRDLLSPPTDNRPGQMDNRSKLRNIVELRLAGLDITDVSLRLIIRHMPLLSKLQLSYCNHINDQSINLLTAVGTTTRDSLTEVNLSDCNKVTDLCLSFFKRCGNICHIDLRYCKQVTKEGCEQFIAEMSVSVQFGQVEEKLLQKLS
B2: Flag-tagged KDM2B (pCMV-3xFlag-KDM2B) (protein, UniProt Q8NHM5 1-1336)
chain: T1 sequence
B3: endogenous SET7 (C2C12 cells) (enzyme, UniProt Q8VHL1 1-366)
chain: MDSDDEVVEEAVEGHLDDDGLPHGFCTVTYSSTDRFEGNFVHGEKNGRGKFFFFDGSTLEGYYVDDALQGQGVYTYEDGGVLQGTYVDGELNGPAQEYDSDGRLIFKGQYKDNNRHGVCWIHYPDGGSLVGEVNEDGEMTGEKIAYVYPDQRTALYGKFIDGEMLEGKLATLMATEEGRPHFEVTSGSSVYHFDKSTSSCISSDALLPDPYESERVYVADSLISSAGEGLFSKVAVGPNTVMSFYNGVRITHQEVDSRDWALNGNTLSLDEETVIDVPEPYNHVSKYCASLGHKANHSFTPNCVYDLFVHPRFGPIKCIRTLRAVEAEEELTVAYGYDHSPPGKSGPEAPEWYQVELKAFQATQQK

Columns and labels:
Test in all cases: co-IP
[1] = biological target: T1, Flag-tagged KDM2B (pCMV-3xFlag-KDM2B)
[2] = biological target: T2, endogenous serum response factor (C2C12 cells) (mouse (endogenous in C2C12))
[3] = biological target: T3, HA-tagged SRF, full length (pCGN-SRF-HA)

Molecule | binding [1] | also measured
SRF-C, SRF C domain-containing region (amino acids 222 to 508) (from UniProt P11831 222-508) (domain or fragment) | no binding | –
exogenous Pax7 (pcDNA3-HA-Pax7) (from UniProt P47239 1-503) | binds | –
SRF-A, SRF A domain-containing region (amino acids 1 to 133) (from UniProt P11831 1-133) (domain or fragment) | no binding | –
exogenous MyoD (pHM6-HA-MyoD) (from UniProt P10085 1-318) | binds | –
B1 | – | binding [2]: binds
B2 | – | binding [3]: binds
B3 | – | binding [2]: binds
